Reference: article PMC12170873, “The Spc105/Kre28 complex promotes mitotic error correction by outer kinetochore recruitment of Ipl1/Sli15” (The EMBO Journal, 2025)
These are yes or no findings as the source states them, for the method shown. For some assays here: Binding seen in cells or lysates may run through a third protein. Some binding calls cover weakened binding; strength is not graded here. For some assays here: Tags and fused reporters may be left off the sequences shown.

By UniProt entry, the sequences of proteins in these tests, tags left out. Where a name states a change or a piece, a line headed by the entry shows the natural chain unless it says otherwise.
UniProt P40460: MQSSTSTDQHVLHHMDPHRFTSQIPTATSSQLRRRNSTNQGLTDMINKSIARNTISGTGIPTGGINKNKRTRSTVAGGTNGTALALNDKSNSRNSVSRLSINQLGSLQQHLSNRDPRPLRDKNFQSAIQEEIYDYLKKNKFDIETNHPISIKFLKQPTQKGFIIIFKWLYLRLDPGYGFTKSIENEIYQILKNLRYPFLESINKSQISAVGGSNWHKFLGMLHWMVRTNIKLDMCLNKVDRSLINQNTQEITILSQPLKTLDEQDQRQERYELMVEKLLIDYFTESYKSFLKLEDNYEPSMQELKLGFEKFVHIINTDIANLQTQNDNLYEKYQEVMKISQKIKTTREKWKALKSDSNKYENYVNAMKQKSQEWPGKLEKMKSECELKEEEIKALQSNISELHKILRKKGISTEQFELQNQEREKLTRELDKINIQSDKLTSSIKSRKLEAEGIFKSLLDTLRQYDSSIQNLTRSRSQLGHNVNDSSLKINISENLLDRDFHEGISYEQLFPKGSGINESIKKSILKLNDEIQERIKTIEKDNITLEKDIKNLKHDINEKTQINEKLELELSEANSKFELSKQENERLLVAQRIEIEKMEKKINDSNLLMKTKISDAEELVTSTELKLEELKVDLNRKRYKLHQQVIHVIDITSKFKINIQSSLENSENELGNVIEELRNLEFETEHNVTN
UniProt P33895: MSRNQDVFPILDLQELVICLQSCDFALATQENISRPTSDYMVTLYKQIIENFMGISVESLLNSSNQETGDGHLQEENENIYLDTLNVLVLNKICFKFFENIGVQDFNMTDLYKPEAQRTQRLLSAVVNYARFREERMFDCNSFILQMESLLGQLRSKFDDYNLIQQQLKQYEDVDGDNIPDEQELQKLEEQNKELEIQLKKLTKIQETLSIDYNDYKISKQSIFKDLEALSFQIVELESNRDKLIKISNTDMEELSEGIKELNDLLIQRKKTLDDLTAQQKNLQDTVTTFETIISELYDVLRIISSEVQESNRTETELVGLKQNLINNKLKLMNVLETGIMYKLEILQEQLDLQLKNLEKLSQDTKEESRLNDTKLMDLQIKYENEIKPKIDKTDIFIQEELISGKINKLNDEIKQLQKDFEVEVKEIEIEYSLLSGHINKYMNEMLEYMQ
UniProt Q04477: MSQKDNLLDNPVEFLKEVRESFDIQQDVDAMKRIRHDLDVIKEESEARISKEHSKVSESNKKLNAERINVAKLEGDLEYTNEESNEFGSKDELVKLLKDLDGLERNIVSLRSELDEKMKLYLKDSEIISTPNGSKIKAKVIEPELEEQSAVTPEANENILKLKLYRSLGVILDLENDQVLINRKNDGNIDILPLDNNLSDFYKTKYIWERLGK
UniProt P40014: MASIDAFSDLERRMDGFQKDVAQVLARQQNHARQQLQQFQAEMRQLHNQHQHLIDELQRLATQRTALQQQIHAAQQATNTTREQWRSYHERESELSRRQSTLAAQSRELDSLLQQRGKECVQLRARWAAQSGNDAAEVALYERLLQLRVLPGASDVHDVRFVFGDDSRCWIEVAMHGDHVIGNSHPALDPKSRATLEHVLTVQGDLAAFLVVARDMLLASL

Key:
[1] = biological target: T1, Spc105-Flag/Kre28^ΔZwint complex, as part of the mutant KMN network (S. cerevisiae) (UniProt P53148+Q04431); experiment: pull-down; co-expressed KMN (Kre28^WT or Kre28^ΔZwint) bound from cleared Sf9 lysate to anti-Flag M2 beads via Spc105-Flag; Mtw1c/Ndc80c kept on the beads seen by Coomassie; interaction buffer with 200 mM NaCl, 4 °C; also with prolonged incubation times (Fig. EV3A)
T1 sequence 1: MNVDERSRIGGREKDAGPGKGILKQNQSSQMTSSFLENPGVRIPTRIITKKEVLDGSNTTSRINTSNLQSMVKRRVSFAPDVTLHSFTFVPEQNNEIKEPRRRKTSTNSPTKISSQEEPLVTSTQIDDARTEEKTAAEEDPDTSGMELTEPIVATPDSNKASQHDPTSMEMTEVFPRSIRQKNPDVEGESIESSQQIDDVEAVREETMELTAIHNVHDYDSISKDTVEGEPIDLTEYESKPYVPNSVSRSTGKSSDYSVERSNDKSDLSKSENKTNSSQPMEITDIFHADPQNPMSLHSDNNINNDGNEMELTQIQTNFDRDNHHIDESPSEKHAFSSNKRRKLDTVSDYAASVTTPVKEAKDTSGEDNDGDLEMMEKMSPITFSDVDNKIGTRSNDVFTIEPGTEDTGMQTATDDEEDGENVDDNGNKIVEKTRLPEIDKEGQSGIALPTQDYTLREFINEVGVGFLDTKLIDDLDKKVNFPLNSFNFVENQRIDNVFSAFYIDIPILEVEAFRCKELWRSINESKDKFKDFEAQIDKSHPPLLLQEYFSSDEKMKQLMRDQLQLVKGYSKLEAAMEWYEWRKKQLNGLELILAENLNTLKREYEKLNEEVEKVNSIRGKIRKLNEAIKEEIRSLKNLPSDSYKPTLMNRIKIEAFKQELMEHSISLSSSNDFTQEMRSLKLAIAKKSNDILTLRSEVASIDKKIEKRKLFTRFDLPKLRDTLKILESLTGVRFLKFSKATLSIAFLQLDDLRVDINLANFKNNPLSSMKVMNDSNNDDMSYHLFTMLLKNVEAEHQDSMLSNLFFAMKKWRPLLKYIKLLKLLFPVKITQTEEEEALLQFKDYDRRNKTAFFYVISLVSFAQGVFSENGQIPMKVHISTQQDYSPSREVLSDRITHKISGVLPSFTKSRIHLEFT
T1 sequence 2: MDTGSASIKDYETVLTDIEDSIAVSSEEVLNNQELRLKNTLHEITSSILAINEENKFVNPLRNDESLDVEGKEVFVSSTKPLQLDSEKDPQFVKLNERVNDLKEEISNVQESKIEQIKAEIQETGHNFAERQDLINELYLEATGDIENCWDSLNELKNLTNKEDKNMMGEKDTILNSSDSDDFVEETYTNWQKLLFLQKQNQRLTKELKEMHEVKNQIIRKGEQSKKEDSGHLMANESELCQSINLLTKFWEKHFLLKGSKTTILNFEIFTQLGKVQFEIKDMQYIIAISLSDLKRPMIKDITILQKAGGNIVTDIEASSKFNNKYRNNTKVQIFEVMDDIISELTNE

[2] = biological target: T2, Spc105-Flag/Kre28 complex (S. cerevisiae, UniProt P53148 1-917; Q04431 1-385); experiment: SEC; ten KMN subunits co-expressed in Sf9 cells from two baculoviruses; single-step anti-Flag purification via Spc105-Flag, then analytical SEC on a Superose 6 column
T2 construct: Spc105 (Knl1 homologue), S. cerevisiae; Kre28 (Zwint homologue), S. cerevisiae, wild type; the asterisk is not explained; A potential proteolysis product of full-length Spc105 is marked in the gels; also called Spc105/Kre28; K subcomplex; source: Sf9 insect cells (baculovirus pFAP10), purified on anti-Flag M2 beads; also as part of the co-expressed KMN network (KT1-5 and KT1-6); not shown: Flag, …
T2 sequence (looked up) 1: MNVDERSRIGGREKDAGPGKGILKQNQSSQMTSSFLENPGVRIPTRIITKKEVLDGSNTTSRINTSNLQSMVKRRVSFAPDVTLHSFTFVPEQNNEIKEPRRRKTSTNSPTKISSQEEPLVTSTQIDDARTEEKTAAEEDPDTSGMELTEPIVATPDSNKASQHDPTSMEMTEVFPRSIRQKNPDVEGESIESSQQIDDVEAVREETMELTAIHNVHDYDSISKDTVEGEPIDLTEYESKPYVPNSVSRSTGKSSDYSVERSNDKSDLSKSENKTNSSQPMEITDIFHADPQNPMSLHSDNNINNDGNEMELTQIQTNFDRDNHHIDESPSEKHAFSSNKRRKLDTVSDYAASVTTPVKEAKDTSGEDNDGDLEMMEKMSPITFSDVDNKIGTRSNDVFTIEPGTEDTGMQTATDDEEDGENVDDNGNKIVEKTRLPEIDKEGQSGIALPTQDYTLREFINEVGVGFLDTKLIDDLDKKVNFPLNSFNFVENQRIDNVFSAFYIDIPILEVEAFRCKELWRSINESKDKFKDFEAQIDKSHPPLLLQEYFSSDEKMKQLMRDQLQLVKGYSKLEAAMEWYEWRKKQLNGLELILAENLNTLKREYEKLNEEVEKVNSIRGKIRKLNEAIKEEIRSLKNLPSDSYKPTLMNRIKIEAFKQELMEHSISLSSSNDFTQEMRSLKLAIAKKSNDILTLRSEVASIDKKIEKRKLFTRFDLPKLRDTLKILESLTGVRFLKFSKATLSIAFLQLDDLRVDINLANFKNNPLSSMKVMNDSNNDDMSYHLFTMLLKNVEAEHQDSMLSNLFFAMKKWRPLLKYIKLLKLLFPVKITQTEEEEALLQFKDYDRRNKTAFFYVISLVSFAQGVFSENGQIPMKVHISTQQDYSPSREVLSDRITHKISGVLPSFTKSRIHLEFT
T2 sequence (looked up) 2: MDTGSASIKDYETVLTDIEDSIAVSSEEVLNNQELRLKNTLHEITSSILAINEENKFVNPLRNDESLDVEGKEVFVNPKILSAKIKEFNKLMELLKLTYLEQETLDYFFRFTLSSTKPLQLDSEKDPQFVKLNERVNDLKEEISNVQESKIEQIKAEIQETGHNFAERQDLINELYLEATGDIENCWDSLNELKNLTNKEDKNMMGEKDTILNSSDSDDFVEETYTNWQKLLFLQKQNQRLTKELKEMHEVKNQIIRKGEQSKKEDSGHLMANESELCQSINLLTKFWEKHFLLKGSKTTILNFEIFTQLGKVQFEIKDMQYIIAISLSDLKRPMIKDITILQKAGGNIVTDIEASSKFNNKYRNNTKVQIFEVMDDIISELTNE

[3] = biological target: T2, Spc105-Flag/Kre28 complex; experiment: cross-linking; cross-links among the subcomplexes inside the co-expressed, co-purified KMN network (in the KMN-Ipl1/Sli15 sample); BS3 (d0/d12), 35 °C, 30 min; mass spectrometry
[4] = biological target: Ndc80 complex (Ndc80, Nuf2, Spc24, Spc25), untagged, as co-expressed in the KMN network (S. cerevisiae) (UniProt P40460+P33895+Q04477+P40014); experiment: as above
[5] = biological target: T3, Spc105-Flag (S. cerevisiae) (UniProt P53148); experiment: cross-linking; recombinant KMN and Ipl1/Sli15 mixed at equimolar amounts, BS3 (d0/d12), 35 °C, 30 min; cross-links identified by mass spectrometry (xQuest); both purified
T3 sequence: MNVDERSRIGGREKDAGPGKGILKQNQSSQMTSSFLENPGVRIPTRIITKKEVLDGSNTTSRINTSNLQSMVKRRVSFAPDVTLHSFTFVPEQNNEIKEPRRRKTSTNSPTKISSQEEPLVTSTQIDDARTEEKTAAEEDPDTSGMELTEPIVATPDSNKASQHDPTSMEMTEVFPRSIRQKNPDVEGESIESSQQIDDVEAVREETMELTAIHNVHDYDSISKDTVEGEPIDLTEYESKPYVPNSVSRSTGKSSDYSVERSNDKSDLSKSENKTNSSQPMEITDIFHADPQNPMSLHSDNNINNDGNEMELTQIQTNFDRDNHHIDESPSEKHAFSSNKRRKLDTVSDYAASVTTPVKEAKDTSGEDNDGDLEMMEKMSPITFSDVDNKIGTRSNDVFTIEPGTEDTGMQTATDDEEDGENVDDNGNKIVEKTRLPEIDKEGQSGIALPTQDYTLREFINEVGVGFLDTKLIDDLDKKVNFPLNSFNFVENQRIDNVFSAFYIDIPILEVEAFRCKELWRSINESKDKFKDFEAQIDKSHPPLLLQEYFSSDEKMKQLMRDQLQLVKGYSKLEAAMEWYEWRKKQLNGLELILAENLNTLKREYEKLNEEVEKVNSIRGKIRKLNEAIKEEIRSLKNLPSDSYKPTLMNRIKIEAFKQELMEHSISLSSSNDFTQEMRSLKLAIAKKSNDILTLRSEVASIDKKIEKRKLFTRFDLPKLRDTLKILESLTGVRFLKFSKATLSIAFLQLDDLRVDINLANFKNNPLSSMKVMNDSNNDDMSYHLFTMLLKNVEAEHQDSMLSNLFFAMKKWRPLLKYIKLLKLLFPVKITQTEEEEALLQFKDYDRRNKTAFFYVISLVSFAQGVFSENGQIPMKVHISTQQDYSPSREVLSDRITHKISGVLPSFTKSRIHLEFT

[6] = biological target: T3, Spc105-Flag (S. cerevisiae); experiment: SEC; ten KMN subunits co-expressed in Sf9 cells from two baculoviruses; single-step anti-Flag purification via Spc105-Flag, then analytical SEC on a Superose 6 column

Molecule	binding [1]	binding [2]	also measured
Ndc80 complex (Ndc80, Nuf2, Spc24, Spc25), untagged, as co-expressed in the KMN network (from UniProt P40460 1-691; P33895 1-451; Q04477 1-213; P40014 1-221)	binds	binds	–
Mtw1 complex (Mtw1, Dsn1, Nnf1, Nsl1), as co-expressed in the KMN network (complex, UniProt P39731 1-289; P40568 1-576; P47149 1-201; Q12143 1-216) chain 1: MSAPTMRSTSILTEHLGYPPISLVDDIINAVNEIMYKCTAAMEKYLLSKSKIGEEDYGEEIKSGVAKLESLLENSVDKNFDKLELYVLRNVLRIPEEYLDANVFRLENQKDLVIVDENELKKSEEKLREKVNDVELAFKKNEMLLKRVTKVKRLLFTIRGFKQKLNELLKCKDDVQLQKILESLKPIDDTMTLLTDSLRKLYVDSESTSSTEEVEALLQRLKTNGKQNNKDFRTRYIDIRTNNVLRKLGLLGDKEDEKQSAKPDARTQAGDIVSIDIEEPQLDLLDDVL chain 2: MSLEPTQTVSGTPPMLHQRTHKQVYPLRMETIPILESDSKATLQSNEPTQKDEEETEYFENKQSVSNLSPDLKFKRHKNKHIQGFPTLGERLDNLQDIKKAKRVENFNSSAPIADDNHSGDATANATANATANATANVNASAMPAPYMPYYYYYHPMNAPTPAMIPYPGSPMHSIMPNSSLQPFYSQPTAAGGPDMTTPQNISSSQQLLPAPQLFPYGSFHQQQLQQPHYIQRTRERKKSIGSQRGRRLSMLASQANGGSTIISPHKDIPEEDFYTVVGNASFGKNLQIRQLFNWCLMRSLHKLELKAKNQEEEGELEHLTKKSKLESTKAETDYVDPKRLAMVIIKEFVDDLKKDHIAIDWEDEEKYEDEDEEKILDNTENYDDTELRQLFQENDDDDDDDDEVDYSEIQRSRRKFSERRKALPKEPKKLLPNSKNVENTKNLSILTSKVNAIKNEVKEWAVTLDTSRPDLEWQELTSFSSQPLEPLSDTEEPDLAIADVETKLETKVDELRYQSHILNSHSLALNEITNSKVNKLNIETMRKISSETDDDHSQVINPQQLLKGLSLSFSKKLDL chain 3: MVNSHGIRYIRLKQVFNRALDQSISKLQSWDKVSSCFPQYVNSKQGAINVANCQRQLTEFWTELCQREFKEIMEERNVEQKLNELDELILEAKERYTDRDQDEVNKGPAIDELSSKELVECHLYSQRMHAIHEIDERLAKVNEMNDQLAQELKDLETQVEVEKNEIGKMYDEYLGSHTDQPANVLLVQSLNDMVLELKENY chain 4: MSQGQSKKLDVTVEQLRSIYHQFHDILEEKTDLHLPKKEYDDDAVRREVQIQLQEFLLSAMTMASKSLEVVNADTVGKTVKQLIMESQEKYMEPFDLDLNEQVRKMYQEWEDETVKVAQLRQTGPAKINEVYNNSKDEYLAQLDGRIGVLQARMMQQQSADHDDSTDDADDHINWEHIKQDYVASLNELYQTQQDLPKVRYNVEKVKRLMDFLEED	binds	binds	binding [3]: binds; binding [4]: binds
6xHis-Sli15 (protein, UniProt P38283 1-698) MDWAIKAARKKTQRKPGSTRSIIETLDDLNNLTTDAHSEINQRLYESSEWLRNNVYMNTLKYEDKKMEESLISPENTHNKMDVEFPKMKGEYELSNSQNDAAKDVTKTPRNGLHNDKSITPKSLRRKEVTEGMNRFSIHDTNKSPVEPLNSVKVDANESEKSSPWSPYKVEKVLRESSKTSESPINTKRFDNQTWAAKEEMENEPILQALKKAESVKVKPPPNSGIARSQRRSNMFVPLPNKDPLIIQHIPPTKSSGSIPKVRTVKESPIAFKKKSTINSPAIRAVENSDTAGSTKASSVFDRLSSIPTKSFENKISRGNVGHKYSSSSIDLTGSPMKKVSQKFKSINSTDTDMQEALRDIFSVKNKITKNNSPKGKNSRKSSIPRFDKTSLKLTTHKKLAIIAEQKKKSKHSSDVHKTGSRPHSISPTKISVDSSSPSKEVKNYYQSPVRGYLRPTKASISPNKNKNLTTSQTPHRLKIKEKTLRKLSPNIADISKPESRKSKNYRLTNLQLLPPAEAERDDLKKKFDKRLSGIMRSQQEHHRRKQEKQKRMSHLEQDLKKQTSFSNDYKDIRLKESLAPFDNHVRDTINKNTAFSTDNILATINTVDHREIIGNVTPKIASVNDSLPEINTDSEDEASVTLAAWAKSPYLQEQLIRQQDINPQTIFGPIPPLHTDEIFPNPRLNRLKPRQIVPKRS	–	–	binding [5]: binds
Kre28^WT, untagged (protein, UniProt Q04431 1-385) MDTGSASIKDYETVLTDIEDSIAVSSEEVLNNQELRLKNTLHEITSSILAINEENKFVNPLRNDESLDVEGKEVFVNPKILSAKIKEFNKLMELLKLTYLEQETLDYFFRFTLSSTKPLQLDSEKDPQFVKLNERVNDLKEEISNVQESKIEQIKAEIQETGHNFAERQDLINELYLEATGDIENCWDSLNELKNLTNKEDKNMMGEKDTILNSSDSDDFVEETYTNWQKLLFLQKQNQRLTKELKEMHEVKNQIIRKGEQSKKEDSGHLMANESELCQSINLLTKFWEKHFLLKGSKTTILNFEIFTQLGKVQFEIKDMQYIIAISLSDLKRPMIKDITILQKAGGNIVTDIEASSKFNNKYRNNTKVQIFEVMDDIISELTNE	–	–	binding [6]: binds
